Measured data: PubChem BioAssay AID1159578 (Peter MacCallum Cancer Centre, 2015)

Aim: 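Knock-downs that alter how fast lymphatic endothelial cells migrate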 (primary screen)
System: human lymphatic endothelial cells
Knock-down reagent: siRNA pool against human genes, 40 nM
Time to read-out: 48 h after transfection
Measured: 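High-content imaging of dye-stained cells in a scratch assay measures filled wound area and nuclei per well; duplicate means given as ratio to mock and robust z-score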
Scale: migration robust z-score: higher = faster migration into the scratch; nuclei per well: higher = more cells in the well
Rule for the call: 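Migration changed when robust z exceeds 2 or falls below -2 and mean nuclei number is at least 3300; otherwise not called changed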
Calls: active = migration changed; inactive = no migration change, or too few cells
In all, the deposit lists about 18,000 reagents; this is an unselected part. About 1,030 of them (5.7%) were called active. 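Inactive calls also include pools with fewer than 3300 nuclei, whose migration was not assessed.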 Raw values are not corrected between plates. Not all columns of the deposit are shown.

The opening 2 records as a preview:
| Gene | migration robust z-score | nuclei per well, duplicate mean | call |
| --- | --- | --- | --- |
| TBC1D5 (TBC1 domain family member 5) | 0.02 | 5071 | inactive |
| CDKL2 (cyclin dependent kinase like 2) | 1.04 | 6727 | inactive |

The list itself, from the start:
| Gene | migration robust z-score | nuclei per well, duplicate mean | call |
| --- | --- | --- | --- |
| TBC1D5 (TBC1 domain family member 5) | 0.02 | 5071 | inactive |
| CDKL2 (cyclin dependent kinase like 2) | 1.04 | 6727 | inactive |
| PRPF4 (pre-mRNA splicing tri-snRNP complex factor PRPF4) | -0.9 | 4638 | inactive |
| SRGAP2 (SLIT-ROBO Rho GTPase activating protein 2) | 0.04 | 7166 | inactive |
| WWC2 (WW and C2 domain containing 2) | -1.97 | 5750 | inactive |
| SLC66A2 | 0.25 | 6267 | inactive |
| COX7A2L (cytochrome c oxidase subunit 7A2 like) | 1.09 | 5488 | inactive |
| PAAF1 (proteasomal ATPase associated factor 1) | 0.31 | 5417 | inactive |
| API5 (apoptosis inhibitor 5) | 0.05 | 5804 | inactive |
| GTF2E1 (general transcription factor IIE subunit 1) | -0.09 | 6136 | inactive |
| APOBEC3A (apolipoprotein B mRNA editing enzyme catalytic subunit 3A) | -3.19 | 4218 | active |
| VCX3A (variable charge X-linked 3A) | -2.34 | 4844 | active |
| HOXD11 (homeobox D11) | 1.2 | 4064 | inactive |
| FAM181A (family with sequence similarity 181 member A) | -1.77 | 4536 | inactive |
| LDHAL6B (lactate dehydrogenase A like 6B) | 1.04 | 4742 | inactive |
| FBXO41 (F-box protein 41) | -0.7 | 5668 | inactive |
| RPH3AL (rabphilin 3A like (without C2 domains)) | -0.44 | 7435 | inactive |
| TAAR8 (trace amine associated receptor 8) | -0.05 | 6822 | inactive |
| PUS1 (pseudouridine synthase 1) | -0.54 | 5700 | inactive |
| HBD (hemoglobin subunit delta) | -0.65 | 5186 | inactive |
| GORASP2 (golgi reassembly stacking protein 2) | -0.02 | 6507 | inactive |
| TRIP10 (thyroid hormone receptor interactor 10) | -1.54 | 6433 | inactive |
| OR1I1 (olfactory receptor family 1 subfamily I member 1) | -3.28 | 2964 | inactive |
